Measured values taken from patent US6887713B2, “Bioactive chip mass spectrometry” (Intrinsic Bioprobes, Inc., priority 2000, dated 2005).
These are yes or no findings as the source states them, for the method shown. Some results given as binding are weak or reduced against the parent protein; the word gives no strength.

Assays:
streptavidin [1] = molecular target: T1, streptavidin (Streptomyces avidinii, UniProt P22629); assay: SPR, streptavidin immobilised
streptavidin [2] = molecular target: T1, streptavidin; assay: SPR, streptavidin immobilised, mixture of 10.0 µM Pep K and 10.0 µM Pep R
streptavidin [3] = molecular target: T1, streptavidin; assay: MALDI-TOF MS intensity ratio before and after SPR capture, against Pep K
streptavidin [4] = molecular target: T1, streptavidin; assay: MALDI-TOF MS relative ion signal before and after SPR capture

SGTSFHPQWIMVGKVATNSP [Pep K]
binding (streptavidin [1]): binds
binding (streptavidin [2]): binds

SGTSFHPQWIMVGRVATNSP [Pep R]
binding (streptavidin [1]): binds
binding (streptavidin [3]): binds
binding (streptavidin [2]): binds

SGTSFHPQWIMVGKVATNSP (oxidized (residue not stated)) [oxidized Pep K]
binding (streptavidin [4]): binds

SGTSFHPQWIMVGRVATNSP (oxidized (residue not stated)) [oxidized Pep R]
binding (streptavidin [4]): binds
